Assay results from US20250082603A1, “OPHTHALMIC COMPOSITION CONTAINING RECOFLAVONE FOR THE TREATMENT OF DRY EYE DISEASE AND METHOD FOR PREPARING THE SAME” (GL PHARMTECH CORP., priority 2021, published 2025).
At least one read-out could not be matched to a standard name with certainty.

Assay: Solubility of recoflavone in water and its pH dependence
Assay type: physicochemical
Settings: ionized
From the text: It has a property with low solubility at low pH. As the pH increases, it is ionized and its solubility increases.
In general, an ophthalmic composition is preferably prepared in a transparent solution state in consideration of the feeling of use in eyes and the efficient absorption of the drug. […] Therefore, if recoflavone is not dissolved in purified water for an ophthalmic composition, a transparent solution may be prepared through (S1) step.

COc1ccc(-c2cc(=O)c3c(OC)cc(OCC(=O)O)cc3o2)cc1OC [recoflavone, 2-((2-(3,4-dimethoxyphenyl)-5-methoxy-4-oxo-4H-chromen-7-yl)oxy) acetic acid]
solubility as the pH increases: increases
